Reference: patent US20150065472A1, “INTRAUTERINE APPLICATION OF 18-METHYL-15SS,16SS-METHYLENE-19-NOR-20-SPIROX-4-EN-3-ONE SYSTEMS, INTRAUTERINE SYSTEMS CONTAINING 18-METHYL-15SS,16SS-METHYLENE-19-NOR-20-SPIROX-4-EN-3-ONE, AS WELL AS THE USE THEREOF IN CONTRACEPTION AND GYNAECOLOGICAL THERAPY” (BAYER PHARMA AKTIENGESELLSCHAFT, priority 2012, published 2015)
Some results were stated once for a whole list of compounds, not compound by compound.

Experiment: Calculated systemic exposition (Css = release rate from IUS divided by clearance) in woman
Set-up: species or system human
Details: dose of 20 μg per day and woman via IUS

| SMILES | calculated systemic exposition (load), times lower in comparison with Mirena |
| --- | --- |
| CC[C@]12CCC3C4CCC(=O)C=C4[C@H]4C[C@H]4C3C1[C@@H]1C[C@@H]1[C@@]21CCCO1 (stereo partly drawn) [compound B, 18-methyl-6α,7α,15β,16β-dimethylene-19-nor-20-spirox-4-en-3-one] | over 30 times |
| CC[C@]12CCC3C4CCC(=O)C=C4CCC3C1[C@@H]1C[C@@H]1[C@@]21CCCO1 (stereo partly drawn) [compound A, 18-methyl-15β,16β-methylene-19-nor-20-spirox-4-en-3-one] | over 30 times |
